Assay results from doi:10.1101/2022.09.28.509312.
No constants are given. Whether binding was seen depends on the method and setting. In cells and extracts the contact can be indirect. Some binding calls cover weakened binding; strength is not graded here.

By UniProt entry, the sequences of proteins in these tests, tags left out. Where a name states a change or a piece, a line headed by the entry shows the natural chain unless it says otherwise. Chains listed by the source or under a name are the forms on record and can include a tag or linker.
UniProt P63073: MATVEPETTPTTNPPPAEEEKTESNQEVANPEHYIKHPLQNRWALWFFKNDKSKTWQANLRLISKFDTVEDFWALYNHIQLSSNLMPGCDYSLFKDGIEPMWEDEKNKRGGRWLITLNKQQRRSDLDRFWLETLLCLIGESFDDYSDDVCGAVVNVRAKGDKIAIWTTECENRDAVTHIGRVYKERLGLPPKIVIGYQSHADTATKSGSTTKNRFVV
eIF4E Ser209Ala (nonphosphorylatable knock-in mutant) (mouse (endogenous in dentate gyrus)) (P63073, form named): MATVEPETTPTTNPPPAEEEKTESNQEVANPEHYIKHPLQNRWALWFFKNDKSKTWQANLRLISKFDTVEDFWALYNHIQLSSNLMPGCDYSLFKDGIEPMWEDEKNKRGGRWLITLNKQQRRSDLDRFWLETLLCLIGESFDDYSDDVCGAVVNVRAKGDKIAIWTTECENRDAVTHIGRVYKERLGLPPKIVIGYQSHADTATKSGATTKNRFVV
UniProt Q7TMB8: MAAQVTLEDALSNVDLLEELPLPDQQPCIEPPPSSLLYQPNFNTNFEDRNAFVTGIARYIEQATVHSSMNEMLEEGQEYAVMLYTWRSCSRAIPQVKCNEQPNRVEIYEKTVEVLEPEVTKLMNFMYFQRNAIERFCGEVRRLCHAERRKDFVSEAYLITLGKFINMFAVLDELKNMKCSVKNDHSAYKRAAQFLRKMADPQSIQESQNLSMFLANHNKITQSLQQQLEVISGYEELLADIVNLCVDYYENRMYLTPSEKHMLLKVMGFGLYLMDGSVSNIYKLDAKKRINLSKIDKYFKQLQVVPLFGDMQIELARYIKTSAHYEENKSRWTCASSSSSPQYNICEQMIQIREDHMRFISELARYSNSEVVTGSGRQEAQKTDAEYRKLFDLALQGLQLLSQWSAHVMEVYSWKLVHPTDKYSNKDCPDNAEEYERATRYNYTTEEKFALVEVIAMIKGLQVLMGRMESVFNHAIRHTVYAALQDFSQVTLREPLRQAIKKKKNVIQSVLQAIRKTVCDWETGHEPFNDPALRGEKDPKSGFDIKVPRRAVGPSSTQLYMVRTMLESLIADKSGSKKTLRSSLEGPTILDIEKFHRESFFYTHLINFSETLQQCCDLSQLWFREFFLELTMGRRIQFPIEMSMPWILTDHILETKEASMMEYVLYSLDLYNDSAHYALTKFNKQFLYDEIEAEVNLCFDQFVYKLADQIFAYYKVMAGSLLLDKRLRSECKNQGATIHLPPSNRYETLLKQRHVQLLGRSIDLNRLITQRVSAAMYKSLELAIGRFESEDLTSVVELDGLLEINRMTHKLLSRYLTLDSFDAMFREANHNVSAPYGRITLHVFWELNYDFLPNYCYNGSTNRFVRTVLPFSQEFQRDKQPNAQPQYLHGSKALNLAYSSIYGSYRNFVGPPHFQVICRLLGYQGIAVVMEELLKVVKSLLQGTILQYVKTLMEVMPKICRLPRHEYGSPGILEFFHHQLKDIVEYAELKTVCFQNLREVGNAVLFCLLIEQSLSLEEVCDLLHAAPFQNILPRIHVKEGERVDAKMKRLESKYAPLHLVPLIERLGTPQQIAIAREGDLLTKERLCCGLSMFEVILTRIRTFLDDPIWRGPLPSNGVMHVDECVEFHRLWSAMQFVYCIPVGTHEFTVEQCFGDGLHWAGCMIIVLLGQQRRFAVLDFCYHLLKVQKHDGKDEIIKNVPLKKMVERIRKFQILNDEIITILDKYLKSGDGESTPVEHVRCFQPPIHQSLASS

Legend:
[1] = target: eIF4E Ser209Ala (nonphosphorylatable knock-in mutant) (mouse (endogenous in dentate gyrus)) (UniProt P63073); assay: pull-down
[2] = target: eukaryotic initiation factor 4E (eIF4E), wild type (mouse (endogenous in dentate gyrus)) (UniProt P63073); assay: pull-down

| binding [1] | binding [2] | Molecule |
| --- | --- | --- |
| binds | binds | cytoplasmic FMRP interacting protein-1 (CYFIP1) (from UniProt Q7TMB8 1-1253) |
| binds | binds | eIF4E-binding protein 2 (4E-BP2) (protein, UniProt P70445 1-120) MSASAGGSHQPSQSRAIPTRTVAISDAAQLPQDYCTTPGGTLFSTTPGGTRIIYDRKFLLDRRNSPMAQTPPCHLPNIPGVTSPGALIEDSKVEVNNLNNLNNHDRKHAVGDEAQFEMDI |
